Article PMC5098908
These are yes or no findings as the source states them, for the method shown. Binding seen in cells or lysates may run through a third protein. Some entries that bind do so weakly or less than the wild type.

Sequences of proteins named here, by UniProt entry; tags and fusion partners are left off. Residues count along the entry.
UniProt P35991: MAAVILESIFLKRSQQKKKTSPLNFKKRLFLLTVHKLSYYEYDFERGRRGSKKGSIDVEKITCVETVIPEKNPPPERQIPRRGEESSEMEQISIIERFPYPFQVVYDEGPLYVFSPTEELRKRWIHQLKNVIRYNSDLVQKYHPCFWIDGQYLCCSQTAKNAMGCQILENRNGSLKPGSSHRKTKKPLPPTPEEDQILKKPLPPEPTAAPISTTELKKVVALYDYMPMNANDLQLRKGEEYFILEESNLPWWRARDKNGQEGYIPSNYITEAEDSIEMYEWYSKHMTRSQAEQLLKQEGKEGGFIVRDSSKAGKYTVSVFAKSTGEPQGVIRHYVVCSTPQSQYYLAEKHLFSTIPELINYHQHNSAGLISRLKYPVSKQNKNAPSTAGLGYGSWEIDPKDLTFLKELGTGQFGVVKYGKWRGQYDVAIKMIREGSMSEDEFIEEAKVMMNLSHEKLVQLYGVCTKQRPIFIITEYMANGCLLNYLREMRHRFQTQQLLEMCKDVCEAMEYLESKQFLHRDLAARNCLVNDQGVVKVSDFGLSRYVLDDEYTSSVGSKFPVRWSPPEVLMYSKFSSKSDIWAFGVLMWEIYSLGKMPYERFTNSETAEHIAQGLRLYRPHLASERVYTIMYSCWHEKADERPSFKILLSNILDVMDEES
UniProt P05555, residues 17-1153: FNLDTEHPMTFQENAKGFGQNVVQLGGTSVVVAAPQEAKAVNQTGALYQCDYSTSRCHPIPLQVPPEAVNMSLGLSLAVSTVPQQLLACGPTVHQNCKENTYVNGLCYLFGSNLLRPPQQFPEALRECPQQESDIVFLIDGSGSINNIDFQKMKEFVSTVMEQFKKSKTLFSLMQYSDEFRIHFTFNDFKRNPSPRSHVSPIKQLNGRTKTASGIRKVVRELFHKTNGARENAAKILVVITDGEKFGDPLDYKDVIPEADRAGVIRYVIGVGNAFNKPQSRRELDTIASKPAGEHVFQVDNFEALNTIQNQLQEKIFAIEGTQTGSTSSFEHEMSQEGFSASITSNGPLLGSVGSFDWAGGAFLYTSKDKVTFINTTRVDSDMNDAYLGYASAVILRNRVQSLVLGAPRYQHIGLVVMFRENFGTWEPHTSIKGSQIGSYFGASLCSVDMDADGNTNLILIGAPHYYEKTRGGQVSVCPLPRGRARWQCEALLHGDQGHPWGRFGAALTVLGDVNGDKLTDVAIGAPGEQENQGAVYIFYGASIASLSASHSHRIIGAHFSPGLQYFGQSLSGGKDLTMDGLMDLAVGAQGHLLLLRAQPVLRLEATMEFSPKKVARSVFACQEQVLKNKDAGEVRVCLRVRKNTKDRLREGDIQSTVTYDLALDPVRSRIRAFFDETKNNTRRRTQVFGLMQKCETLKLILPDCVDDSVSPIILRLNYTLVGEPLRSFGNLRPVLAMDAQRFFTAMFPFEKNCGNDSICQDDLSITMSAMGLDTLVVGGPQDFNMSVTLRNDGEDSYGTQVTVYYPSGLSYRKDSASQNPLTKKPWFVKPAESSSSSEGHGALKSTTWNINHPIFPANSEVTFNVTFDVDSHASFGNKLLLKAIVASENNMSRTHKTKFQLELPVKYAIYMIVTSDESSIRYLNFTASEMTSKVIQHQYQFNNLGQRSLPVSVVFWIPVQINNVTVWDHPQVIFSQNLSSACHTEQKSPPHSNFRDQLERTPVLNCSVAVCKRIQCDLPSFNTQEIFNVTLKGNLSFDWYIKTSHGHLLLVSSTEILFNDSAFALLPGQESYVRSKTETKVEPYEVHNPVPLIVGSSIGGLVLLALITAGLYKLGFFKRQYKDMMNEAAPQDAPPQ

Legend:
Experiment in all cases: co-IP; lysates (500 μg protein, Pierce IP Lysis buffer) of mouse bone marrow-derived macrophages treated with CD95L (40 ng/ml) or non-treated; immunoprecipitated at 4°C for 4 hr with anti-Btk, anti-CD11a (M17/4) or anti-CD11b (M1/70), Dynabeads M-280 Streptavidin; immunoblotted for CD95
[1] = molecular target: Bruton's tyrosine kinase (mouse (endogenous in bone marrow-derived macrophages)) (UniProt P35991)
[2] = molecular target: T1, integrin αL (mouse (endogenous in bone marrow-derived macrophages)) (UniProt P24063)
T1 sequence: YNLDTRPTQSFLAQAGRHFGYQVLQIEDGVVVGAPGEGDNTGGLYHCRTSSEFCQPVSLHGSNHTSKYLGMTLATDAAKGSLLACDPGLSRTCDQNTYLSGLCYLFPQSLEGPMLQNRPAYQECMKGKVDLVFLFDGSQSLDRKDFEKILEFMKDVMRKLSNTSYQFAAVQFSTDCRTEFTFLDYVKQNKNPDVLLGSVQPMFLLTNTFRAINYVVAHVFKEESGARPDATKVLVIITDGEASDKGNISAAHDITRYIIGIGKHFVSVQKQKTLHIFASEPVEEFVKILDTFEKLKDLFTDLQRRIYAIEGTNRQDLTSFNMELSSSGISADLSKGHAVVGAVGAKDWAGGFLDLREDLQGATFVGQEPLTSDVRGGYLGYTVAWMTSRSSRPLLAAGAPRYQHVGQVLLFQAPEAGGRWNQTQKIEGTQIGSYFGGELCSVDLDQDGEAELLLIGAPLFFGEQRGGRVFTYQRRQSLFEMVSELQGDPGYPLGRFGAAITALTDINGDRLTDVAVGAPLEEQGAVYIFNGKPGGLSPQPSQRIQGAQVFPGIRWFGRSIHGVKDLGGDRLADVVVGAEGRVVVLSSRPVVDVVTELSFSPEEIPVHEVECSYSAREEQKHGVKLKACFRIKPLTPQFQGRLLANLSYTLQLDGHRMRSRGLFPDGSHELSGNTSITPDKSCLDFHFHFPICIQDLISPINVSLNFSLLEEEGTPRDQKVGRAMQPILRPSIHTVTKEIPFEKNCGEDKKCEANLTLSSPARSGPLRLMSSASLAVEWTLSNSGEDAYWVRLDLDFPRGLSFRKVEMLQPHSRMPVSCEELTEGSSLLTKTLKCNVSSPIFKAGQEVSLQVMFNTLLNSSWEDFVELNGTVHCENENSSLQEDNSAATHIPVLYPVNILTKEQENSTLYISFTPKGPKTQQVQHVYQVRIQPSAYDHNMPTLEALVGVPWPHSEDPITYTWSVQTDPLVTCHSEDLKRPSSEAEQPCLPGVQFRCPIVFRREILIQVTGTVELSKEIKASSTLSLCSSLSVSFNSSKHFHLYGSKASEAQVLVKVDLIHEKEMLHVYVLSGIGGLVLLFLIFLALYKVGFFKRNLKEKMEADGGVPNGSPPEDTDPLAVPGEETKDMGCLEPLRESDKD

[3] = molecular target: integrin αM (mouse (endogenous in bone marrow-derived macrophages)) (UniProt P05555)

binding [1]: binds
binding [2]: binds
binding [3]: no binding
B1: CD95 (receptor, UniProt P25446 22-327)
chain: QGTNSISESLKLRRRVRETDKNCSEGLYQGGPFCCQPCQPGKKKVEDCKMNGGTPTCAPCTEGKEYMDKNHYADKCRRCTLCDEEHGLEVETNCTLTQNTKCKCKPDFYCDSPGCEHCVRCASCEHGTLEPCTATSNTNCRKQSPRNRLWLLTILVLLIPLVFIYRKYRKRKCWKRRQDDPESRTSSRETIPMNASNLSLSKYIPRIAEDMTIQEAKKFARENNIKEGKIDEIMHDSIQDTAEQKVQLLLCWYQSHGKSDAYQDLIKGLKKAECRRTLDKFQDMVQKDLGKSTPDTGNENEGQCLE
